According to PMC5005036, “PDZD7-MYO7A complex identified in enriched stereocilia membranes” (eLife, 2016):
Results are given in words; binding and its absence hold for the method and conditions named. In cells and extracts the contact can be indirect. Some entries that bind do so weakly or less than the wild type.

Sequences of proteins named here, by UniProt entry; tags and fusion partners are left off.
UniProt P97479: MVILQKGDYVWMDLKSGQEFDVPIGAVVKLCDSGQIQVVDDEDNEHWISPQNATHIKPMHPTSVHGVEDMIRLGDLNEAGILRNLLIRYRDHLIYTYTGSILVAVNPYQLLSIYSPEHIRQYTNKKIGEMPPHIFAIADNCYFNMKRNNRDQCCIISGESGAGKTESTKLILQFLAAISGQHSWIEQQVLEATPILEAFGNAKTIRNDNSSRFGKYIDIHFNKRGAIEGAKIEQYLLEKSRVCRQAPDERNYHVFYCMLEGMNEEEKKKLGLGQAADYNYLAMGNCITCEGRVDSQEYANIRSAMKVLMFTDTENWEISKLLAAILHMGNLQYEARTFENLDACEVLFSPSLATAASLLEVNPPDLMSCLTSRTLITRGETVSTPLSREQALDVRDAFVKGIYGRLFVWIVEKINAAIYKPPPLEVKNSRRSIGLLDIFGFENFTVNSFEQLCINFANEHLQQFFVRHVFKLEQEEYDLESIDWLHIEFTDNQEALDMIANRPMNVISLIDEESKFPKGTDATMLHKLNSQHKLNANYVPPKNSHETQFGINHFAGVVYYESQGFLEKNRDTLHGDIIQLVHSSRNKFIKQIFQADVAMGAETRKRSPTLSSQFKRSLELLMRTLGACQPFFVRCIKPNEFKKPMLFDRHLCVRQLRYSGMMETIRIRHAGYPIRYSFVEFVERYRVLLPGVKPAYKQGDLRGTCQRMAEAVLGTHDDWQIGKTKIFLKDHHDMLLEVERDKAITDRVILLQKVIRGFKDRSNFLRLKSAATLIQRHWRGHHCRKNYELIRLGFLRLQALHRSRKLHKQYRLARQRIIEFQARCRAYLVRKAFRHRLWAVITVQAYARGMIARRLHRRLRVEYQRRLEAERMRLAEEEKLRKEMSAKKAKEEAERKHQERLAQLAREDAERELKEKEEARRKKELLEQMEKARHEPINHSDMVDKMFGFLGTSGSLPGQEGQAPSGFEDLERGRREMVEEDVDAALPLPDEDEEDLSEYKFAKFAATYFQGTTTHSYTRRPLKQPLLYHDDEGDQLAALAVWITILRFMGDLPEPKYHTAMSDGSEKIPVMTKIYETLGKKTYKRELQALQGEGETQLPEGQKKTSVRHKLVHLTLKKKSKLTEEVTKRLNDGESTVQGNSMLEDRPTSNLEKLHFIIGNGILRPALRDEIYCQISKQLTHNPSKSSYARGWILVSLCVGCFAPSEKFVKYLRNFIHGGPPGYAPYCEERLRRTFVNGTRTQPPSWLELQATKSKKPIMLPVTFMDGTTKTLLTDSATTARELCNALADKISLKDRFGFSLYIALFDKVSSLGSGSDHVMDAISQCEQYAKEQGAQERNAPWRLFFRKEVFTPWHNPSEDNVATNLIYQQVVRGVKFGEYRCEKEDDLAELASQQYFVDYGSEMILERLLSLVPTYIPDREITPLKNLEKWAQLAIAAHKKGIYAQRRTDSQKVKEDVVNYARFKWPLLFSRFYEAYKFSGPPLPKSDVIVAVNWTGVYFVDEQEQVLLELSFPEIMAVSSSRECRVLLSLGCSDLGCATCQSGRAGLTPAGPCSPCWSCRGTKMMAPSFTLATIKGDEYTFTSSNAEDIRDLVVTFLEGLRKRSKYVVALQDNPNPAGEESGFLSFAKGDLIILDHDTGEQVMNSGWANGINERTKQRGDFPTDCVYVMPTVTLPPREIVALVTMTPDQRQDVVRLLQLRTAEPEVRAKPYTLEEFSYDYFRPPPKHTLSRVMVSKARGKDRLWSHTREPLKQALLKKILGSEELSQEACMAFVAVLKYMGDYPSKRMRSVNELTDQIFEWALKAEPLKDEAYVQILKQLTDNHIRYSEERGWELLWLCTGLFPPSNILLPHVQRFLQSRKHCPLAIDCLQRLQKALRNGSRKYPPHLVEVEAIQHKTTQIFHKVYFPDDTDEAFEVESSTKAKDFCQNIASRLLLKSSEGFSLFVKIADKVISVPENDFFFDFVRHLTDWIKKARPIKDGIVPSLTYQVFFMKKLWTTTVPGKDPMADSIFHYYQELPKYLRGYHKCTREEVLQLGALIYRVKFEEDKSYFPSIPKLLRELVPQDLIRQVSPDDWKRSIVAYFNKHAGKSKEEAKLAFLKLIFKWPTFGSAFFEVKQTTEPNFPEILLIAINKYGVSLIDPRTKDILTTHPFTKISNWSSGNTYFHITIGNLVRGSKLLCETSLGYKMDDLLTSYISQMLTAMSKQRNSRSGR
UniProt Q80VM7: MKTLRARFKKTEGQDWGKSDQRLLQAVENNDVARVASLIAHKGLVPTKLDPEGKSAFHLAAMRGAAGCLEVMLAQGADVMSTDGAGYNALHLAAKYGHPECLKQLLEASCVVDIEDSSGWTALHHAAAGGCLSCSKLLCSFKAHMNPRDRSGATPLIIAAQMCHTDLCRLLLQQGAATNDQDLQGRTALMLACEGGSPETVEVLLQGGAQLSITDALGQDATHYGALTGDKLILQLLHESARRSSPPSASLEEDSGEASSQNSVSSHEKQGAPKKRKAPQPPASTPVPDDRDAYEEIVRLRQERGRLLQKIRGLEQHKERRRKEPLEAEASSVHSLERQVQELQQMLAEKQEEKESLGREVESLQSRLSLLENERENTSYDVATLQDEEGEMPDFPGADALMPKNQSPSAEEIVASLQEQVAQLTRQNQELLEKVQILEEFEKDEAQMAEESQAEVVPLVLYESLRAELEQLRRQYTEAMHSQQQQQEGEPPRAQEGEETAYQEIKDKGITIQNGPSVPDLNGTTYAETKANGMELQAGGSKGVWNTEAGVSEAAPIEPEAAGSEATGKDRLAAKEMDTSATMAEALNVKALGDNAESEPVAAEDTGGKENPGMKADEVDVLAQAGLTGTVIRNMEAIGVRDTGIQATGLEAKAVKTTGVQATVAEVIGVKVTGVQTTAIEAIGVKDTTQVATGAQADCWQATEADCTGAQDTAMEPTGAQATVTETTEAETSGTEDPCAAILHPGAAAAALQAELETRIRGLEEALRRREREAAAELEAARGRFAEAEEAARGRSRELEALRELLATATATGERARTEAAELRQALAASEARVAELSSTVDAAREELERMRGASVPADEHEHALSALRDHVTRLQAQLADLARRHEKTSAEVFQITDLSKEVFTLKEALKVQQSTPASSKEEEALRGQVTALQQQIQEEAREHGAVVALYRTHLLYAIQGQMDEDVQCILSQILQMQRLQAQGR

B1: mCherry-PDZD7 (mouse), in HEK293 (natural protein, UniProt E9Q9W7 1-1021, looked up)
chain: MARGFTVGFDPLGLGELSSGSLSSVSSRGHLGSDSGSTATRYLLRKQQRLLNGPSRGIRASSPMGRVILINSPIEANSDESDIIHAVRVEKSPSGRLGFSVRGGSEHGLGIFVSKVEEGSSAERAGLCVGDKITEVNGLSLESTTMGSAVRLLTSSSCLHMMVRRMGRVPGIKFSKEKTTWVDVVNRRLVVEKCSSTPSDRSSEDGVRRIVHLYTTSDDFCLGFNIRGGKEFGLGIYVSKVDHGGLAEENGIKVGDQVLAANGVRFDDISHSQAVEVLKGQTHIMLTIKETGRYPAYKEMVSEYCWLDRLSNGVLQQLSPASESSSSVSSYASSAPCSSGSLPSDRMDVCLGPEEPTSHGPGWGRADTAMQTEPDLDSRVETWCSVRPTVILRDTAIRSDGPSSTRHLDSALSESPKTALLLALSRPRTPITRSQSHLTLWEEKKQRKKEKSGSSGEKGALQRSKTLMNLFFKGGRQGRPAGDGHREAWTLDSRSPTKVRPRLDLEKAGSVGPVQKFVTWRLRRDRERGRALLSARSGSPSGQAPTVNEQVQAWESRRPLIQDLARRLLTDDEVLAVTRHCSRYVHEGGVEDLVRPLLAILDRPTKLLLLRDIRSVVAPTDLGRFDSMVMPVELEAFEALKSRAVGPSALRPTRQDTPPKRHLITPVPDSRGGFYLLPVNSSEDEDGEIREKLGVLKVSLGASAPHHKGIPPLQDVPVDAFSLRRGACAPPPQPPPVAPRPPRPNWLLTEPLSREDTQQNQSQTPAQSCSRSRSRSRSRSHSRGQGKSPGRRRSPSPAPIATAATANGRYHRPRKARPLLPRLLDGQVAKVGARQGPLENGRIAEEAVGNVSTGALRTITLSKMKQSLGISISGGIESKVQPMVKIEKIFPGGAAFLCGDLQAGFELVAVDGESLEQVTHQRAVDTIRRAYRNKAREPMELVVRVPGPGLLPLASDLRVVKDQSLAPDCPSALGPVDDARILTQLPPPEARQLQQSLSSALKVPQSIPKLSPILKDPHDPS
notes: PDZD7, mouse, cloned into pmCherry-C1; also called PDZD7 fused to mCherry; source: HEK293, transfected, in RIPA extract; not shown: mCherry, N-terminal, kept
B2: PDZD7-Strep (mouse) (protein, UniProt E9Q9W7 1-1021)
chain: B1 chain

What was measured:
[1] = target: GFP-MYO7A (mouse) (mouse) (UniProt P97479); experiment: co-IP; HEK293 cells co-transfected; RIPA extract; 138-1 anti-MYO7A beads, 1 hr room temperature, washed with RIPA, eluted with 2% SDS; immunoblot (anti-PDZD7 or anti-GFP)
[2] = target: ANKRD24-GFP (mouse) (mouse) (UniProt Q80VM7); experiment: co-IP; HEK293 cells co-transfected; immunoprecipitation with anti-GFP antibody, detection with anti-Strep

| Binder | binding [1] | binding [2] |
| --- | --- | --- |
| B1 | binds |  |
| B2 |  | no binding |
